Experimental data: PubChem BioAssay AID1159584 (Peter MacCallum Cancer Centre, 2016)

Purpose: 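Genes that CDH1-null MCF10A cells selectively depend on to survive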 (primary screen)
Cells: human MCF10A breast epithelial cells, parental and CDH1-null
Reagents: siRNA against human genes
Read-out: 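ATP luminescence (CellTiter-Glo) viability per line relative to mean mock wells over all plates, and the ratio of CDH1-null to parental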
Reading the numbers: CDH1-null / parental viability ratio: higher = CDH1-null cells survive relatively better than parental; CDH1-null viability vs mock: higher = more viable CDH1-null cells
The whole screen tested about 18,000 reagents; shown is an unselected part. Not all columns of the deposit are shown. Reagent sequences are not shown. The record does not give: the amount of reagent, the time to read-out.

gene	CDH1-null / parental viability ratio	CDH1-null viability vs mock (fraction of mock)
GAGE2E	0.93	0.76
LHX9	1.12	0.74
CCDC178	1.23	0.7
IGF2BP3	0.95	0.76
ZCWPW1	0.65	0.55
CYP2W1	0.86	0.79
EIF4G3	0.73	0.64
PBLD	0.95	0.78
AMOTL2	0.8	0.7
MZT2B	0.87	0.68
ZFC3H1	1.17	0.63
CNN3	1.12	0.86
DPY30	1.01	0.89
DKC1	0.87	0.71
CELA3A	1.25	0.86
ABLIM3	1.32	0.54
INTS8	1.1	0.76
MLLT6	0.98	1
DNM3	0.95	0.71
TAS2R31	1.27	1.04
SLC35D4	0.94	0.49
C1S	1.06	0.91
KNSTRN	1.08	0.91
RAC1	0.81	0.58
ATP8B3	0.93	0.82
ILF2	1.09	0.86

An excerpt from the list above:
gene	CDH1-null / parental viability ratio	CDH1-null viability vs mock (fraction of mock)
ABLIM3	1.32	0.54
INTS8	1.1	0.76
MLLT6	0.98	1
DNM3	0.95	0.71
TAS2R31	1.27	1.04
SLC35D4	0.94	0.49
C1S	1.06	0.91
KNSTRN	1.08	0.91
RAC1	0.81	0.58
ATP8B3	0.93	0.82
ILF2	1.09	0.86

Further results follow:
gene	CDH1-null / parental viability ratio	CDH1-null viability vs mock (fraction of mock)
KCTD10	1.34	1.22
JAKMIP2	1.09	0.85
GRK4	1.13	0.79
SLC7A6	1.15	0.97
PLEKHB1	1.28	0.46
GOLM1	1.16	1.09
GDF15	1.2	0.65
FAM32A	0.79	0.66
OBP2A	0.82	0.62
SPAG4	1.43	1.34
ERICH6	0.81	0.7
ELK3	1.01	0.85
CAPN1	1.05	0.84
MAP4K2	1	0.88
DSC1	1.12	1.25
SPECC1	1.13	0.93
IGFBP1	1.06	0.93
ALDH1A2	0.96	0.94
TSPAN11	1.2	0.77
POP1	1.02	0.63
GRIK4	1.13	0.68
PHKG2	0.85	0.86
BPIFA1	0.76	0.32
BACC1	0.95	0.72
RIPOR3	0.86	0.8
BEX3	1.27	1.02
DBX1	1.02	1
PCID2	0.86	0.67
BABAM1	1.09	0.94
MCL1	1.09	1.12
PLP1	0.8	0.8
ZBTB6	1.12	0.92
WIPI1	1.42	0.68
ANKK1	0.83	0.7
SACK1E	0.95	0.81
CENPS	1.21	1.16
RPSA	1.27	0.28
C1orf198	1.24	0.98
VIPR1	0.66	0.46
LCE1C	0.94	0.68
BTBD16	0.92	0.74
CTU1	1.21	1.04
